Data as given in PubChem BioAssay AID1508600 (Functional Genomics Laboratory (NCATS/FGL), 2020).
The whole screen tested about 53,000 sequences, of which about 3,700 (7%) were called active.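 The calls were made as follows: active = gene knockdowns whose robust z-score for IL-1 alpha signal is at least 2 or at most -2, so actives lie on both sides; inactive = the rest.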 Some of the results follow.

experiment: Components of the Cytosolic LPS Sensing Pathway: Gene Identification via Genome-wide siRNA Screen; conditions: RAW264.7 macrophages, IL-1a HTRF, actives lie on both sides, screened at 100 nM (by protocol), cells primed 5 h with Pam3CSK4 first;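 also: robust z of the log signal after scaling to non-targeting control siRNA wells of the plate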
How it was run: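 Using IL-1a HTRF as read-out, the screen measured release from RAW264.7 cells after 48h siRNA knockdown (100 nM), 5 h Pam3CSK4 priming and 24 h cytosolic LipidA. Values were expressed relative to negative-control wells as robust z-scores.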

| Sequence | z-score |
| --- | --- |
| GGAGUGUUGGGAGCAGGAATT against Tnni1 | active: 2.71 |
| GCAGAGUGCUCGUAGAGUGTT against Heatr5a | inactive: 0.96 |
| GCCUGUUUUAUUGUGUGACTT against Gna13 | inactive: -0.0703 |
| GGAAAUCACCAGAGCUGAUTT against Atp6v0a2 | inactive: -1.14 |
| GGUUGUGAUAUUAGGUCCGTT against Ak8 | inactive: 1.4 |
| GGAGAUCCCGUCACUAUCUTT against Lrrc61 | inactive: -0.439 |
| GCCUCUGAUGUAAACAGGATT against Nr2c2ap | inactive: 0.883 |
| GGAGAUGGCGAAAACUCACTT against Rrbp1 | inactive: -0.796 |
| GGUGAGUUCAUGGUUUCCUTT against Txnl4b | inactive: -0.142 |
| GGGAGGAGUCAUUCAUGAGTT against Cpsf4l | inactive: 0.425 |
| GCUGAAGUGCAAGAACAAATT against Dmd | inactive: 1.91 |
| GGUUCCCUUUUUCAUCUAATT against 4632433K11Rik | active: 3.08 |
| GGGAAAAAUGGUCAGAUUATT against Colgalt2 | inactive: -1.08 |
| CCCAGACUCAGUUUUAACUTT against Spsb4 | inactive: -1.88 |
| GGAGAAGGAGAUGUCCAAUTT against Guca2b | inactive: 0.777 |
| GCUCCCAAGUUUACCCAGCTT against Mybphl | inactive: 0.505 |
| GGACUGAGAACCAAAGCUGTT against D630044L22Rik | active: -3.15 |
| GGAGUCCACUAUGAGUACGTT against Thsd4 | inactive: -0.143 |
| GGCCAUCCAGUGCCUACAATT against Edc4 | inactive: 0.697 |
| GCCGUAGAUUUCCUUGAGUTT against Isca1 | inactive: -0.0435 |
| GGAGUUCGAAAGUAUCUAUTT against Rcvrn | inactive: -1.26 |
| GGAAUCAGACACGUUCAUCTT against Prkar2a | inactive: 0.297 |

| Sequence | z-score |
| --- | --- |
| GGACUACUUCCCAAGAAUUTT against Gle1 | inactive: 0.365 |
| GCACUUUCGGUCAAGUGGATT against Pou2f3 | inactive: -0.534 |
| GGCGGUGACAGAGCUGAAUTT against Ywhah | inactive: 1.35 |
| CGUGCAUUCUUAUCACAGCTT against Hsbp1 | inactive: 0.987 |
| GGAGGUUACAUAACAGGUGTT against Itsn2 | inactive: 1.86 |
| GGUGGGUCAAUGAUCCAGGTT against Fabp9 | active: -2.11 |
| GGAAGAAAGGAAAAUCAGATT against Nsmaf | inactive: 0.337 |
| GCUGGAGUGUCAGUCAUAUTT against Reg4 | active: 3.35 |
| GCUGGCCAAACUUGACAGUTT against Wwc1 | active: 2.05 |
| GGGUCCUUUGAAAUUGUGGTT against Usp37 | inactive: -0.0104 |
| GGAAGCAUUCAAGAACAUCTT against Rab11b | inactive: 1.43 |
| CCAGGGACUUAGGUUUAUCTT against Thap11 | inactive: -0.625 |
| GGUUAUCCAGAGAGAAGGATT against Asxl2 | inactive: 0.399 |
| GGUUCCUCAAGAUCAUCAUTT against P2ry13 | inactive: 0.051 |
| GCUAGGAAGCAGUUAAUGATT against Usp49 | inactive: 0.124 |
| GGUCAUUUCUGGCAAGGUUTT against Pnpla3 | inactive: -0.671 |
| GGGCAAUUAUCUUUGUUAUTT against Olfr589 | inactive: -0.0712 |
| GGAAGACAUUACCAAGUCATT against Impa1 | inactive: -0.577 |
| CCGCACAGACCAUAGUAGATT against Pudp | inactive: 0.261 |
| CCCUUACAUACCAAAGAAATT against Pkp4 | inactive: 0.229 |
| GGAUAAAAGAGAAGAGUGUTT against Glmn | inactive: -0.0461 |
| CCCGAUAUAAUCAAGAAACTT against Pld3 | inactive: -1.42 |

| Sequence | z-score |
| --- | --- |
| GCCUUUUAACUUAUUCUUGTT against Hey2 | inactive: 0.0356 |
| GGAAAAGGAAGAAGAGGCATT against Zfpm1 | inactive: -1.63 |
| GGUCCUAAACCACUUCAGCTT against Gtf2f1 | inactive: 1.54 |
| GCCUAGGAUAUGUAUUAACTT against Rhbdd2 | inactive: -0.631 |
| GGAUGACCCACUGGUGACUTT against Gng8 | inactive: -0.97 |
| GGCAGUGGCUUGGAUAAAUTT against Amdhd2 | inactive: -0.609 |
| CGAAUUAUCCAAACAAAUGTT against Shcbp1 | inactive: 0.558 |
| GGAACGUAUACCUAUACCCTT against Huwe1 | inactive: -0.263 |
| GGUUAUAACACCAGAUGGGTT against Iah1 | inactive: 0.62 |
| GGCUCAGAUGAUGAGCUUUTT against Hic2 | inactive: 0.498 |
| GCCUGUUUUGCCUAAAGUGTT against Hnrnpdl | inactive: 0.367 |
| GGAGGUUCCUUCUUCAUCUTT against Cysrt1 | inactive: 1.03 |
| CGCAUAUCUAGAAUGGUUATT against 2810021J22Rik | inactive: 1.74 |
| GGACAAGUACUUCAUGAUCTT against Gosr2 | inactive: -0.226 |
| GGAUAAGACAGUUCCUAGCTT against Tap1 | inactive: -0.921 |
| GCCACCAUUAGGACAAGAUTT against 4933409G03Rik | inactive: -0.17 |
| GCAGGUGCCAACAUUAUUGTT against Pnpla2 | inactive: 0.0636 |
| GGAACUGUUGAAGAAACUGTT against Nudt16l2 | inactive: -0.411 |
| GGCUGCCUAUUAUGAGAAGTT against Acy3 | inactive: 1.92 |
| CCAAAGGGAAGAGUUAUGCTT against Tmem126b | active: 2.34 |
| GGUAGGCUGUGUUUGUCGGTT against Poldip3 | inactive: 1.53 |
| GGCACUUACUUCUGAGAAGTT against Pheta1 | inactive: 0.875 |

| Sequence | z-score |
| --- | --- |
| GGAUAACGAACAUUUCAUCTT against Ntrk2 | inactive: -0.236 |
| GCUUUUUGUGGAGCAUUUUTT against Olfr1261 | inactive: -0.215 |
| GCAGCAUUAGUGACUUAAUTT against Mcph1 | inactive: -0.941 |
| GGACCUACAGCUGUGUGUUTT against Hjv | inactive: -0.485 |
| GGCCCAUGUUUAUUUAUGGTT against Hsd3b6 | inactive: -0.947 |
| GGAAGAUGUUGAUAAUAGATT against Dmxl2 | inactive: -0.0393 |
| GCCUGAUAGUGGUGGACAGTT against Tmem45a2 | active: 3.29 |
| GGCCUCUCUACUCCUCAACTT against Ern2 | inactive: 0.182 |
| GGUGCAACAACUUAGUUUATT against Hspa2 | inactive: 1.16 |
| GGUCCGAUUUCAAGCCAUGTT against Ucp3 | inactive: 1.91 |
| GGUGCACUGUACAUGUAACTT against Fpr-rs3 | inactive: 0.12 |
| GGAACAAGAAAAUCUUGACTT against Ifna9 | inactive: -0.189 |
| CCAUGAAGACUCAUCUCUGTT against Cadm3 | inactive: 0.602 |
| GGACUUACUGAAAGAUAUGTT against Satb1 | inactive: -0.893 |
| GCAUUUCCGGGUUGUUACATT against Pelp1 | inactive: 0.23 |
| GCGACGAUUGUUAAAGCUGTT against Top1mt | inactive: -1.04 |
| CGCGGCAAAUGUUUUAAAUTT against Scd3 | inactive: 0.303 |
| GUACGGCAACAUGACCCAGTT against Cd74 | inactive: 0.385 |
| GGAACAGGCAACAUGAUUGTT against Nlgn3 | inactive: 0.376 |
| GCUACAAGACUUUUACCAGTT against Tnfsf18 | inactive: -0.0821 |
| GCAGGUCUUUACCAGUAUUTT against Fcgr2b | inactive: 0.196 |
| GACUUUCAUUCACAUAAUGTT against Vmn1r11 | inactive: -0.307 |

Quoted at random: six entries already listed, in no set order.

| Sequence | z-score |
| --- | --- |
| GCUUUUUGUGGAGCAUUUUTT against Olfr1261 | inactive: -0.215 |
| GCAGCAUUAGUGACUUAAUTT against Mcph1 | inactive: -0.941 |
| GUACGGCAACAUGACCCAGTT against Cd74 | inactive: 0.385 |
| GGUGCAACAACUUAGUUUATT against Hspa2 | inactive: 1.16 |
| GCAGGUCUUUACCAGUAUUTT against Fcgr2b | inactive: 0.196 |
| GCUACAAGACUUUUACCAGTT against Tnfsf18 | inactive: -0.0821 |

(list continues)

| Sequence | z-score |
| --- | --- |
| GGAACAACUCCUGUUCCCATT against Obscn | inactive: 1.85 |
| GCUCAUCCAUCGUAGUAAGTT against Fam170a | inactive: -0.482 |
| CCUCAGGAUACAGACCCACTT against Frg2f1 | inactive: -0.35 |
| CGGCCUAUCUCUUGGUUUATT against Usp18 | inactive: -1.86 |
| CGAGGCUAUGAAAUCAGCCTT against Gfi1b | inactive: 0.771 |
| GAUGAAGAAGUAGAAAUGGTT against Ston2 | inactive: -0.423 |
| CCCAUAAAACAGUCAACUATT against Ankra2 | inactive: -1.68 |
| GCCAGACUAAGCUUAAGACTT against Clca3a2 | inactive: -1.09 |
| GGAAAAUCUACUGUUUCCCTT against Flacc1 | inactive: 0.244 |
| GCCAUAGCUAUUGUCAUUCTT against Mmp16 | inactive: 0.441 |
| GGACAUCAAAGAAAAGUCATT against Gpr171 | inactive: 0.955 |
| CGAUGUAAGGAAAGAAAGGTT against Cd14 | inactive: -1.47 |
| CAGCAAUGACCUGAUGUUATT against Klk1b21 | inactive: -0.776 |
| GGCGAACAGAGAGAGUUAGTT against 4921524J17Rik | inactive: 0.677 |
| GGGCAUAUGAGAUUUAUUATT against Trappc2 | inactive: -0.423 |
| GGAGAUAAAAUUAUUCAGGTT against Erbin | inactive: -0.631 |
| CCUUUAAACUUCAAGAAGCTT against Btk | inactive: -0.664 |
| GGUAGUUCUGAAAAAGAAGTT against Slc7a11 | inactive: 0.241 |
| GGGCAUCUACUUUAAACUCTT against Mgat3 | inactive: 0.0561 |
